Measured values reported in the supplement of paper PMC11006884.
Only a part is listed here, and it is no random draw.

By UniProt entry, the sequences of proteins in these tests, tags left out. Where a name states a change or a piece, a line headed by the entry shows the natural chain unless it says otherwise.
UniProt Q9H6U6: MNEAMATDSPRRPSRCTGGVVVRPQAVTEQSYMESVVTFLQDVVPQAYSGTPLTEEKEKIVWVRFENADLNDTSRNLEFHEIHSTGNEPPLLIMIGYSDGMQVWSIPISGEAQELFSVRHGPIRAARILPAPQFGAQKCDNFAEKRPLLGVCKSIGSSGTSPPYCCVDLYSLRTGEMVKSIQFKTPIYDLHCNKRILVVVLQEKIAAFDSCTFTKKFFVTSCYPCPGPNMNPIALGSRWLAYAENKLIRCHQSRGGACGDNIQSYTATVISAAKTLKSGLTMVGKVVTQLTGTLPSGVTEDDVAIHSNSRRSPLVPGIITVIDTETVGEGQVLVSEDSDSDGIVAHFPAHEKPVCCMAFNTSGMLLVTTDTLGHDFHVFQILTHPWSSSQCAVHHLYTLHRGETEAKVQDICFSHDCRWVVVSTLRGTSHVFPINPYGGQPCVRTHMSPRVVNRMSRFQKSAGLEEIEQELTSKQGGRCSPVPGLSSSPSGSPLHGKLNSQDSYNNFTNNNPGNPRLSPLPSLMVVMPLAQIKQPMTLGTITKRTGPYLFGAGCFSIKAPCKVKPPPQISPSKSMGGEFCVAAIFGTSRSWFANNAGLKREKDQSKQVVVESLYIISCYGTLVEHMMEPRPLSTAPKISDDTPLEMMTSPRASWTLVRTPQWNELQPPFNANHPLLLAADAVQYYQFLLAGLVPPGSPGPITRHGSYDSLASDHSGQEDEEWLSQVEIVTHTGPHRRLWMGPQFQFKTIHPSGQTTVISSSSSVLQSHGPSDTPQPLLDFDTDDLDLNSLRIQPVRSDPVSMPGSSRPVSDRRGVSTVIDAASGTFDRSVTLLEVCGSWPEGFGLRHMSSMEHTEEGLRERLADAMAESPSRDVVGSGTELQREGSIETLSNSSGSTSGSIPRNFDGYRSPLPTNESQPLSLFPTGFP
UniProt Q9H6Y2: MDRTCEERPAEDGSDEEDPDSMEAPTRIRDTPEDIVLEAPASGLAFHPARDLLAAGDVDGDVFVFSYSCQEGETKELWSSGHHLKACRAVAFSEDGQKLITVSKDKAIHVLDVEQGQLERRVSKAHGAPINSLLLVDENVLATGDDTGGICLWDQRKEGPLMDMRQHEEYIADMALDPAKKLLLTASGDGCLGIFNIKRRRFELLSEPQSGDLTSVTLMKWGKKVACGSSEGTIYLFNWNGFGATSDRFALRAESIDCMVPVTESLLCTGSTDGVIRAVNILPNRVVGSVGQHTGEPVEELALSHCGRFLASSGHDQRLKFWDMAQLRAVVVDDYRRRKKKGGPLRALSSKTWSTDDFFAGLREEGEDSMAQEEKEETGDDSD
UniProt Q9H582: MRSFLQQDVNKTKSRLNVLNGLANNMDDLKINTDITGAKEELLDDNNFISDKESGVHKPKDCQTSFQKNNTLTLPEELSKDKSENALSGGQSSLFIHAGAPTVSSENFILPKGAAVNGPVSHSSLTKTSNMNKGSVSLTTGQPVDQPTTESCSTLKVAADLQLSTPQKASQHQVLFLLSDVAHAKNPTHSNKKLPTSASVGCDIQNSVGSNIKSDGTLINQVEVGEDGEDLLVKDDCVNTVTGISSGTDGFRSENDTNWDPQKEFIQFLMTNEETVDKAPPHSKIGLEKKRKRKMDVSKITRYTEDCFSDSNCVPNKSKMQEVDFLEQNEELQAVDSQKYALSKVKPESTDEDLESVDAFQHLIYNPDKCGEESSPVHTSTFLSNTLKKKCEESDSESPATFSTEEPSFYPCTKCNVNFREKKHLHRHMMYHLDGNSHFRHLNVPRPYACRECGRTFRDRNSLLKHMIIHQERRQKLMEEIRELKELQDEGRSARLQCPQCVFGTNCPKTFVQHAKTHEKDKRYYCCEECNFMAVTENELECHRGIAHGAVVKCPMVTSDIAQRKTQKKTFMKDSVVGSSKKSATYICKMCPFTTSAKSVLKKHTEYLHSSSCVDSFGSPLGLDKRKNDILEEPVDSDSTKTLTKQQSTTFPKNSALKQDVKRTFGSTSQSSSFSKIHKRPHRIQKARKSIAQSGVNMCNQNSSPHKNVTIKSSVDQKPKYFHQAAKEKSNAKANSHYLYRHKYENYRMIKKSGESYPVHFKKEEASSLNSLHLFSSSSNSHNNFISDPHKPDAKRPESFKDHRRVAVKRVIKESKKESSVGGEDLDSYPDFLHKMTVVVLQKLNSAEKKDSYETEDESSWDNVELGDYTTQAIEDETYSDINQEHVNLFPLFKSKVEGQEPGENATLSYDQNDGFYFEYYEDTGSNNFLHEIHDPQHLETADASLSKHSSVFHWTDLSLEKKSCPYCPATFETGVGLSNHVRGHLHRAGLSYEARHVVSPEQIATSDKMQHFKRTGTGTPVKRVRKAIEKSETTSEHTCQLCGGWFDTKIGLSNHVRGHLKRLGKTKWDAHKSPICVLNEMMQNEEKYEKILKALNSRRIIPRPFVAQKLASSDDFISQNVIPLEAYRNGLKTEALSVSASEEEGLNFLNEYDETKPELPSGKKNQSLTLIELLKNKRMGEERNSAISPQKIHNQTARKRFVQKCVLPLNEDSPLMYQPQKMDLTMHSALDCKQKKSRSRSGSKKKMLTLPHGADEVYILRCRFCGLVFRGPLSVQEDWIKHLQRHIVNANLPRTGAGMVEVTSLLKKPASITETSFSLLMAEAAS
UniProt Q9H3U1: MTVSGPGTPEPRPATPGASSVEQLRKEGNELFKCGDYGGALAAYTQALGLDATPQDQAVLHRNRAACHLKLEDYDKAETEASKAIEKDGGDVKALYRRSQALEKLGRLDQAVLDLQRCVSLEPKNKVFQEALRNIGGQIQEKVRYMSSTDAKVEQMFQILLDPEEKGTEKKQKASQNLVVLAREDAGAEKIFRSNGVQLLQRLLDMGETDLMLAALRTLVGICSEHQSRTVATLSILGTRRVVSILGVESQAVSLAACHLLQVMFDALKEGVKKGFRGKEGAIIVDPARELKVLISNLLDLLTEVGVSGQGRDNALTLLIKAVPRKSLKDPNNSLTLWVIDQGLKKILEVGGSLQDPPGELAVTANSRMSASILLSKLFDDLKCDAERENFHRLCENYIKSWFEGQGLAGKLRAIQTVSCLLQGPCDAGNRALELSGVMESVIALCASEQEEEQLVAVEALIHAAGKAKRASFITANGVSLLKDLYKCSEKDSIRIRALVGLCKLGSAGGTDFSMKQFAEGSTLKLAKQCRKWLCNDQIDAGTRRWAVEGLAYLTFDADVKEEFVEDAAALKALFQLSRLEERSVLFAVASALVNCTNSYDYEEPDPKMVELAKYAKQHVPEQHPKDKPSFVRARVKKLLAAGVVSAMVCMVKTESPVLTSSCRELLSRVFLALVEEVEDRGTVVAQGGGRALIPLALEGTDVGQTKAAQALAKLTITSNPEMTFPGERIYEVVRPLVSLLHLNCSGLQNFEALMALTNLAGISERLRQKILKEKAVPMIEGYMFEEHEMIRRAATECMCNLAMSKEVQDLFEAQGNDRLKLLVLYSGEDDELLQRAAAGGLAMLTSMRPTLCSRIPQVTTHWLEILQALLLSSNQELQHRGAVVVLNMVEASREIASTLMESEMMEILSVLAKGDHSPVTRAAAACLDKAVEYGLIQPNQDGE
UniProt Q9NQT5, whole entry: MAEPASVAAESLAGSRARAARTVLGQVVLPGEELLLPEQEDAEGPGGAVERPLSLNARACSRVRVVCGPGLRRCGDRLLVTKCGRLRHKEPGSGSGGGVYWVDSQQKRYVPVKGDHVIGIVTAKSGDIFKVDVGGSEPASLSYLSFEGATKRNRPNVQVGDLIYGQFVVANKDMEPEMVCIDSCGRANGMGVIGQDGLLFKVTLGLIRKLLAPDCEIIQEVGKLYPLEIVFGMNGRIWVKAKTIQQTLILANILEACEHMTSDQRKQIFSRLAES
UniProt Q9NRZ9: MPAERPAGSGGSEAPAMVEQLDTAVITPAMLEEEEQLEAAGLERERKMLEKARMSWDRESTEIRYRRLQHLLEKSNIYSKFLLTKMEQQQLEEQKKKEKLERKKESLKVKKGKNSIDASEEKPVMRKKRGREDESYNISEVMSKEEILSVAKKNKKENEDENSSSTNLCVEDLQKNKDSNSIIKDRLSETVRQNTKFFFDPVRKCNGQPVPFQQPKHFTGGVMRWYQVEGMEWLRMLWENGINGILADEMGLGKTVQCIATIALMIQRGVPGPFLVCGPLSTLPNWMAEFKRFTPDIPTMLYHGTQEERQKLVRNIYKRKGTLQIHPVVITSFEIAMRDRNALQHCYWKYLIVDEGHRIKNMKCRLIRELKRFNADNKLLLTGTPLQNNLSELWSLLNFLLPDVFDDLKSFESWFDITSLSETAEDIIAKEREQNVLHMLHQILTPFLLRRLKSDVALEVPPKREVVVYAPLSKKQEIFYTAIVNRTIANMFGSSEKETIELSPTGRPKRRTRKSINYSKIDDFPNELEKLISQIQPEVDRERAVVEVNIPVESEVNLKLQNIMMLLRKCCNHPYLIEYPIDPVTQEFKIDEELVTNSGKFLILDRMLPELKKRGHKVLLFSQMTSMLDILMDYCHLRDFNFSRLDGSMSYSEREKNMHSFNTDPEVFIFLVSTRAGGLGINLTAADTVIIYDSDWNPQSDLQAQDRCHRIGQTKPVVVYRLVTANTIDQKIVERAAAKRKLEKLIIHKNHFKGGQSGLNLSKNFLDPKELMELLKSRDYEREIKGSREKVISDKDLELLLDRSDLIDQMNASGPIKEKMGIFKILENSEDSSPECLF
UniProt Q9NPA3, whole entry: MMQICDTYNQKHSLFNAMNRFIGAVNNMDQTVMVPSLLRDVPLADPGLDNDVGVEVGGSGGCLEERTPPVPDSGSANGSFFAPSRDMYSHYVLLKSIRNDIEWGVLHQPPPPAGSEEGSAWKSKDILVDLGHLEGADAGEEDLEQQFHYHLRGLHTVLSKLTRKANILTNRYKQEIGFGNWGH
UniProt Q9H501: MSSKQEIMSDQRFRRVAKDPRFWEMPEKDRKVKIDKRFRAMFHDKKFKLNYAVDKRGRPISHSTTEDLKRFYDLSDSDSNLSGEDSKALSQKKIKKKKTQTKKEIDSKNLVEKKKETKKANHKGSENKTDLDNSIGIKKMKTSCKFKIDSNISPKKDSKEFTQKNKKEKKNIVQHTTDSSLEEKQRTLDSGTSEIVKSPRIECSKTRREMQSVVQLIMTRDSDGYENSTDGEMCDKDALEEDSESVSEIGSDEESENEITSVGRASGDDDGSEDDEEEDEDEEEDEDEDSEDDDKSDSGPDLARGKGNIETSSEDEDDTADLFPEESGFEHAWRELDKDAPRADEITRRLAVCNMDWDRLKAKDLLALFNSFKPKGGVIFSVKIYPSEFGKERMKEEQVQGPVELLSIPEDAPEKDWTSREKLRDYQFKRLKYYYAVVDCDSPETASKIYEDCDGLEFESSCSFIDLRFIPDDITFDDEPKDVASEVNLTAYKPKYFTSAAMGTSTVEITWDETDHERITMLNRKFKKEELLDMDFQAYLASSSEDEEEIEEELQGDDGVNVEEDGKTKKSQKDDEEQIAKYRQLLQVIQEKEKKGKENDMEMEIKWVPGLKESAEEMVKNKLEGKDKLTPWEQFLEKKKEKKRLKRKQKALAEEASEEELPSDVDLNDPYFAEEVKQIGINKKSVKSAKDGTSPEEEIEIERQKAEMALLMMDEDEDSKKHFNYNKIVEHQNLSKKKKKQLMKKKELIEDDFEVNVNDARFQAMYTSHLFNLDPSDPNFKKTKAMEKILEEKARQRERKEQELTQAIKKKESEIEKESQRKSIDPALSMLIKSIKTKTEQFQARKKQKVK
UniProt Q9NRL3: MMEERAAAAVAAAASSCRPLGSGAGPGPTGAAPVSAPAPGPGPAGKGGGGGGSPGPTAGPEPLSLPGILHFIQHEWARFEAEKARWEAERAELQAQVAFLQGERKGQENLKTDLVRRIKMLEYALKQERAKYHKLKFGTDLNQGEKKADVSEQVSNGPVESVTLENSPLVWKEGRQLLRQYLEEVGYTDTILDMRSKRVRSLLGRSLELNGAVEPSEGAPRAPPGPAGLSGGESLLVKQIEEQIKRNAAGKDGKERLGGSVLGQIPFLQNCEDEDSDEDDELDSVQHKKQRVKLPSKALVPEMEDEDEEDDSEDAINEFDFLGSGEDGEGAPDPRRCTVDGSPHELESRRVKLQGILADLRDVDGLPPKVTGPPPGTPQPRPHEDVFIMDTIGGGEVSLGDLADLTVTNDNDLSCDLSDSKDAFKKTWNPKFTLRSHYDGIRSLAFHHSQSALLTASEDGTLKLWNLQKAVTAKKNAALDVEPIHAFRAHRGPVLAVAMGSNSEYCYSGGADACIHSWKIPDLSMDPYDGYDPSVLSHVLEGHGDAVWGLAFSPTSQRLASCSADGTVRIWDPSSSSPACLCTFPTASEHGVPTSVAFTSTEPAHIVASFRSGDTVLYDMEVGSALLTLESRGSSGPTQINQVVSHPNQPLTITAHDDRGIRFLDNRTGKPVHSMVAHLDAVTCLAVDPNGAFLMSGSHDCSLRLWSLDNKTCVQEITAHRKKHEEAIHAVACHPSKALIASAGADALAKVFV

Compound: COC(=O)C#Cc1ccccc1 [methyl 3-phenylpropiolate]
Assay: log2 ratio of iodoacetamide-alkyne labeling of the cysteine site, DMSO over compound (competition); higher = stronger covalent engagement of the cysteine by the compound, active = 1 or more
Details: 500 µM; treatment time 1 h; system: HEK293T cell lysate
How it was run: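 Reporter intensities give each cysteine's log2 competition ratio as the mean of control channels over the mean of compound channels. The samples were HEK293T lysate (2 mg/mL) given vehicle or electrophile (500 µM, 1 h, ambient temperature), then iodoacetamide alkyne (1 h), followed by click coupling to sCIP-TMT reagents, pooling, trypsin digestion overnight at 37 °C, streptavidin enrichment, acid elution, Orbitrap Eclipse LC-MS/MS with FAIMS and FragPipe quantification. Duplicate channels and three replicates were run, and cysteines quantified in only one replicate were discarded.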

| Target | log2 ratio of iodoacetamide-alkyne labeling |
| --- | --- |
| MLXIP C738 (UniProt Q9HAP2) | inactive: -0.0833 |
| PDS5B C1069 (UniProt Q9NTI5) | inactive: 0.199 |
| BCAS3 C16 (UniProt Q9H6U6) | inactive: 0.55 |
| IARS2 C91 (UniProt Q9NSE4) | inactive: 0.81 |
| C17orf75 C288 (UniProt Q9HAS0) | inactive: 0.43 |
| UniProt Q9H8G2_C226 | inactive: 0.149 |
| WDR55 C306 (UniProt Q9H6Y2) | inactive: 0.187 |
| PNN C439 (UniProt Q9H307) | inactive: 0.082 |
| PHAX C87 (UniProt Q9H814) | inactive: 0.778 |
| CXorf56 C11 (UniProt Q9H5V9) | inactive: 0.411 |
| MCCC2 C267 (UniProt Q9HCC0) | inactive: 0.733 |
| MDN1 C579 (UniProt Q9NU22) | inactive: -0.0663 |
| ZNF644 C1206 (UniProt Q9H582) | inactive: 0.615 |
| UNC45A C34 (UniProt Q9H3U1) | inactive: 0.0992 |
| EXOSC5 C26 (UniProt Q9NQT4) | inactive: 0.995 |
| EXOSC3 C184 (UniProt Q9NQT5) | inactive: 0.41 |
| ATP13A1 C336 (UniProt Q9HD20) | inactive: 0.126 |
| UTP3 C359 (UniProt Q9NQZ2) | inactive: 0.366 |
| HELLS C205 (UniProt Q9NRZ9) | inactive: 0.615 |
| UniProt Q9NPA3_C62 | inactive: 0.293 |
| ESF1 C462 (UniProt Q9H501) | inactive: 0.309 |
| STRN4 C337 (UniProt Q9NRL3) | inactive: 0.488 |

No new results follow: entries from further up.

| Target | log2 ratio of iodoacetamide-alkyne labeling |
| --- | --- |
| EXOSC3 C184 (UniProt Q9NQT5) | inactive: 0.41 |
| ATP13A1 C336 (UniProt Q9HD20) | inactive: 0.126 |
| UTP3 C359 (UniProt Q9NQZ2) | inactive: 0.366 |
| HELLS C205 (UniProt Q9NRZ9) | inactive: 0.615 |
| UniProt Q9NPA3_C62 | inactive: 0.293 |
